From the supplement of paper PMC10849652
Some of the results follow.

Protein sequences, listed by entry. Tags and fused reporters are not part of them. Lines headed by an entry give the natural chain unless they say otherwise; changes in a name come on top.
UniProt Q96RW7: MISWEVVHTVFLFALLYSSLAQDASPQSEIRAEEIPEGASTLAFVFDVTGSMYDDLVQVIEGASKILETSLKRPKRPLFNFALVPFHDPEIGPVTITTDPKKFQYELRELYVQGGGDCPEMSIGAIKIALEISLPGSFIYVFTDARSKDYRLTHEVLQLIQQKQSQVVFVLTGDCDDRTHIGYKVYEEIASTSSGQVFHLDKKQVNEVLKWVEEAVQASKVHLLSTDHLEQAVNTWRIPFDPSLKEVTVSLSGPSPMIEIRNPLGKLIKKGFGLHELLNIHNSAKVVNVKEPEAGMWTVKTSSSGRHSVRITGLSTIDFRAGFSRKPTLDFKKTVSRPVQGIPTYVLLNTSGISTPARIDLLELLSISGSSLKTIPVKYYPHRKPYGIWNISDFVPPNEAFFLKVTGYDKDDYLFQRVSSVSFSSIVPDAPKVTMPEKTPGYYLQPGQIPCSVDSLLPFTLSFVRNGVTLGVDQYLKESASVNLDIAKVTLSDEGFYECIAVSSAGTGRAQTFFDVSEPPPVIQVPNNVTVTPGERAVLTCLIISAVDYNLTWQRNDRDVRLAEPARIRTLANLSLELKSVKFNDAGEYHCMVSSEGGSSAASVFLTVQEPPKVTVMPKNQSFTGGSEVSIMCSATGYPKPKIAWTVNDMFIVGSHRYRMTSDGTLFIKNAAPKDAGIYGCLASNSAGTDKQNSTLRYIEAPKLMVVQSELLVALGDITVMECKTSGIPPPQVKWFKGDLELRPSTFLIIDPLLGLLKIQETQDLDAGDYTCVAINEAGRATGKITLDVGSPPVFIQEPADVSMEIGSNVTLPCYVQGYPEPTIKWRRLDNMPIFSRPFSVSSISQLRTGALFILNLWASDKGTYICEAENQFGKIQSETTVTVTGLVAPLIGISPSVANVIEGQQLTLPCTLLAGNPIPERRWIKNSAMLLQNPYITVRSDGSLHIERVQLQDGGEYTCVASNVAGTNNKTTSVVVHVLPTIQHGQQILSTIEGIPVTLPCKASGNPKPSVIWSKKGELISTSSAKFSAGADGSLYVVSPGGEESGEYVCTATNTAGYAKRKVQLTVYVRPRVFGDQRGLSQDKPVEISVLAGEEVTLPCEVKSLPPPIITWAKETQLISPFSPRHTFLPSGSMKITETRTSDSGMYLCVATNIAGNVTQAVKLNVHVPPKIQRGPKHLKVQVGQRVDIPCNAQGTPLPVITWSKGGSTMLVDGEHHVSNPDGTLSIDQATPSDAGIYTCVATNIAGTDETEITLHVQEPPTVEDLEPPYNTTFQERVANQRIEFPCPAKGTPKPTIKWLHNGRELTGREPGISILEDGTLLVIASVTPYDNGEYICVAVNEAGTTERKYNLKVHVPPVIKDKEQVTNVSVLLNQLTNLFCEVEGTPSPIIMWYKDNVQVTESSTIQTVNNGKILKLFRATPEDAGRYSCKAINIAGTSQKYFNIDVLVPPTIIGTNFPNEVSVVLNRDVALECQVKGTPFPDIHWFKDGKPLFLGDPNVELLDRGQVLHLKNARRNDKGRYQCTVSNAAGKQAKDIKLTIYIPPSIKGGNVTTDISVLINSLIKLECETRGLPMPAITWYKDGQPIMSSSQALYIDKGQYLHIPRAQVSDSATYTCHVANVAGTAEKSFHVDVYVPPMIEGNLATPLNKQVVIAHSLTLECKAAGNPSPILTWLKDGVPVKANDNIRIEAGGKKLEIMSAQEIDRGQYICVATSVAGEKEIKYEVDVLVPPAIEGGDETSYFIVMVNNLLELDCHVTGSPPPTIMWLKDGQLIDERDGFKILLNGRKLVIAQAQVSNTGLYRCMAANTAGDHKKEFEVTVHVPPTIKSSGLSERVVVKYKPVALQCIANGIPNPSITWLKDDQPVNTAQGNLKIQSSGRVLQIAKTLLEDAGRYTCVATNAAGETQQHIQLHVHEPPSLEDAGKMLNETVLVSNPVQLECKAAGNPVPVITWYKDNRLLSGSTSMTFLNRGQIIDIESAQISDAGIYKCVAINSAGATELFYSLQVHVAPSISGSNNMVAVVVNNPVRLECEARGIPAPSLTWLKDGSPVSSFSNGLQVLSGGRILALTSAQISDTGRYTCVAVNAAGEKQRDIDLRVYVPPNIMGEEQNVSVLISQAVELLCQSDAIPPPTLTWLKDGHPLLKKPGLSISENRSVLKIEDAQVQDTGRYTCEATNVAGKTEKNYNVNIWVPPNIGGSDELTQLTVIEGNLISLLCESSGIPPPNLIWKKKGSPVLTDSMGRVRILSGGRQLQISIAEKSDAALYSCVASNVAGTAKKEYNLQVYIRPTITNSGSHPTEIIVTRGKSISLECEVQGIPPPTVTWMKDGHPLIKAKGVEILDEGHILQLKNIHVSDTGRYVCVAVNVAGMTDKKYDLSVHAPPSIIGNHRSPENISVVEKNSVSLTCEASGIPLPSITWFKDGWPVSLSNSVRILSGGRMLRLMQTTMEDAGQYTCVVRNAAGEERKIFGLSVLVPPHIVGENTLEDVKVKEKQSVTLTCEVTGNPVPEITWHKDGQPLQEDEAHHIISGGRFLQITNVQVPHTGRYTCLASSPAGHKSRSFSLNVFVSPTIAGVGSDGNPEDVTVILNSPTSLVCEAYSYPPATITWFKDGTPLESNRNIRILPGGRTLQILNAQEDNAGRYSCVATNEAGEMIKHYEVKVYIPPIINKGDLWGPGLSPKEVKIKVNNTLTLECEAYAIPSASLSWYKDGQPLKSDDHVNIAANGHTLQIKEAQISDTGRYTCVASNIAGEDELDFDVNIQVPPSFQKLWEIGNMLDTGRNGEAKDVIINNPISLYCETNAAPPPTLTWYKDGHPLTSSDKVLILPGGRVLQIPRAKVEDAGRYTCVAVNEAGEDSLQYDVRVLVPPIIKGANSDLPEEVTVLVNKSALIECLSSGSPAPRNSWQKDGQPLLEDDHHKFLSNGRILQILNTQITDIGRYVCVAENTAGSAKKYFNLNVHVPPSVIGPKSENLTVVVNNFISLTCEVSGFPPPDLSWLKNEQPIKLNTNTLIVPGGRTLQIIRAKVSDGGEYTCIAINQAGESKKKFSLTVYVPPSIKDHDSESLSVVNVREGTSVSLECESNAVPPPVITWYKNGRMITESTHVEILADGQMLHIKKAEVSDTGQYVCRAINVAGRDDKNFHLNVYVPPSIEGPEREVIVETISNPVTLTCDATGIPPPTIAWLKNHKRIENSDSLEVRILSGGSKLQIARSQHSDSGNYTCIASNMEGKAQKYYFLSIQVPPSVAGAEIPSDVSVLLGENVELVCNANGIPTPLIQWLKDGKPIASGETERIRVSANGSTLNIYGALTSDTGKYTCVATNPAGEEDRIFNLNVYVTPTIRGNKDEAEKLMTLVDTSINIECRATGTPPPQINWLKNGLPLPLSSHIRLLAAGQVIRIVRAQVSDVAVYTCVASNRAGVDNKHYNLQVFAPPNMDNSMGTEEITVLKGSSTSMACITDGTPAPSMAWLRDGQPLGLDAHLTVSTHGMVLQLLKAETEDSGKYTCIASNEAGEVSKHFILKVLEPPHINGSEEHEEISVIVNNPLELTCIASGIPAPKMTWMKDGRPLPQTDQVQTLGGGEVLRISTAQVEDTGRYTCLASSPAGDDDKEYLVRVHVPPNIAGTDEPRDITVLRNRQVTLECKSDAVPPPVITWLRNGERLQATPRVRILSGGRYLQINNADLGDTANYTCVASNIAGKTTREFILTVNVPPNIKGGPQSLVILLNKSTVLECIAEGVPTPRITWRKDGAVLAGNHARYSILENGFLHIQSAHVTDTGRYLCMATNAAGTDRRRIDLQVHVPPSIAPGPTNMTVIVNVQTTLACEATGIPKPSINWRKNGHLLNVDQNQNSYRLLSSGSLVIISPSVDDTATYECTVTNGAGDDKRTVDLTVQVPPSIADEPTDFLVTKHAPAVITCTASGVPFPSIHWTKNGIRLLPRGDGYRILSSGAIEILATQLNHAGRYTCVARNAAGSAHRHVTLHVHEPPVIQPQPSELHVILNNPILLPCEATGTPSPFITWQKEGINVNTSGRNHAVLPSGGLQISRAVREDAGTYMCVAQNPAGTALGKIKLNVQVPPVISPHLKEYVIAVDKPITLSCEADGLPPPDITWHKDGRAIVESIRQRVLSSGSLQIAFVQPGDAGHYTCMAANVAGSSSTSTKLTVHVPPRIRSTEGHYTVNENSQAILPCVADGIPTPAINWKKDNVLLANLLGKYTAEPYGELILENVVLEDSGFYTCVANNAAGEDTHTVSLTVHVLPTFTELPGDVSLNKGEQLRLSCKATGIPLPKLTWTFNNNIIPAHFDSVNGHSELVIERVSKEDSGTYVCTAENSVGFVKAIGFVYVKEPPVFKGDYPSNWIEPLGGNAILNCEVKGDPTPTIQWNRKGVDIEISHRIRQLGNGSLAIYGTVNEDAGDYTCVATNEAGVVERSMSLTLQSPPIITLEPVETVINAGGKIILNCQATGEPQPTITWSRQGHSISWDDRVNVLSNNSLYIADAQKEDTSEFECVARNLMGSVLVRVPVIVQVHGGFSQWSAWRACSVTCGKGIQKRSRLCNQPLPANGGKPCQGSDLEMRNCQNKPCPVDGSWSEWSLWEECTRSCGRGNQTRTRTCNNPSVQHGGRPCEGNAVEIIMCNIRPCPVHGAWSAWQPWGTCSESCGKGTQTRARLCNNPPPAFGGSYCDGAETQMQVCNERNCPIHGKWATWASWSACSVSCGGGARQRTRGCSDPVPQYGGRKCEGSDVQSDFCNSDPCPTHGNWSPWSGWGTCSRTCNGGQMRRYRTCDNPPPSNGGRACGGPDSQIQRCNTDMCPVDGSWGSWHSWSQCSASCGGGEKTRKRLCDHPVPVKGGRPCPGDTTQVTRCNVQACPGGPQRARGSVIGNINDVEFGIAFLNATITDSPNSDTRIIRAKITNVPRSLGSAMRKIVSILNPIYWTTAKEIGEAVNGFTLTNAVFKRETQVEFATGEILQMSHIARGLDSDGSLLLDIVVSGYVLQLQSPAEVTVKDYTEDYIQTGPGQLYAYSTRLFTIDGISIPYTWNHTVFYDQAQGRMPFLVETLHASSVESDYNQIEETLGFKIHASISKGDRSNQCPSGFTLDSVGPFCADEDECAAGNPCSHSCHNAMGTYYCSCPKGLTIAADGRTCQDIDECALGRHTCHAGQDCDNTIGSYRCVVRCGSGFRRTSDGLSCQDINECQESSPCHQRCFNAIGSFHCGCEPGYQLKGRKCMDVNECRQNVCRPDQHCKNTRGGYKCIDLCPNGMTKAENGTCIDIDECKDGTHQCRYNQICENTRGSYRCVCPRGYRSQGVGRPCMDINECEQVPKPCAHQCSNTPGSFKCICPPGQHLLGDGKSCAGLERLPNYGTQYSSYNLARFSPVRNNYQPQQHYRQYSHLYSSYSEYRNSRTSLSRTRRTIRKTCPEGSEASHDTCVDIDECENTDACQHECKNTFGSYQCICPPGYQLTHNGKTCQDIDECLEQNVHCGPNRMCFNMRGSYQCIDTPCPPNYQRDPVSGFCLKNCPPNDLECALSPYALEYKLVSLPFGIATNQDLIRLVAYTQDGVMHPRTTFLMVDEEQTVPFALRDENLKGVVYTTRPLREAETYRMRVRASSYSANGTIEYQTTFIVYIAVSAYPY
UniProt P08238, whole entry, looked up: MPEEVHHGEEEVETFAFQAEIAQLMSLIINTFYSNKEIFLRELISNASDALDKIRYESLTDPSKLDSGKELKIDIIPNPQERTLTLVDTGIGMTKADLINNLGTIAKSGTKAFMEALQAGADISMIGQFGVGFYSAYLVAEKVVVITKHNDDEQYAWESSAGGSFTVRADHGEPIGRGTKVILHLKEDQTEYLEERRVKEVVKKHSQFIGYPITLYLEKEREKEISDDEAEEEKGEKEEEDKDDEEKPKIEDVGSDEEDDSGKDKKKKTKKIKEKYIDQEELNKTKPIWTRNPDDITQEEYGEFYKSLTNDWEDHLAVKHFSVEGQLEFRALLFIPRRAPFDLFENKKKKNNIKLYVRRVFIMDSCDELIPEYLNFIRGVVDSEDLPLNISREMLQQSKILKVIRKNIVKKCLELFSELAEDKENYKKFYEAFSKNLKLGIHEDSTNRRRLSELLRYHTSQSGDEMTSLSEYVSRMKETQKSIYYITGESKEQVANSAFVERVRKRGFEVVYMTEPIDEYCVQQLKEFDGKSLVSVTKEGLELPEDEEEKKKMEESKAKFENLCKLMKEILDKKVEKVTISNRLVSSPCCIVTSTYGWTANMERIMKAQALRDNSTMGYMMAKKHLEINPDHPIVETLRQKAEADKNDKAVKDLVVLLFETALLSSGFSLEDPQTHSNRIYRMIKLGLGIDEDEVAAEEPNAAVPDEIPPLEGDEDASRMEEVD
UniProt P17096: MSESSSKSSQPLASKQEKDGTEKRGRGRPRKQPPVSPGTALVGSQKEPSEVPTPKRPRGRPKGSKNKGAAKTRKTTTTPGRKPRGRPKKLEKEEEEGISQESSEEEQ

What was measured:
Test in all cases: log2 fold change, soluble protein after heating vs DMSO (PISA); higher = thermal stabilisation; K562 lysate, 10 uM; active = over 0.2 and 3.5 SD of the protein, either way, in both replicates (recomputed)
ibrutinib = compound: C=CC(=O)N1CCC[C@@H](n2nc(-c3ccc(Oc4ccccc4)cc3)c3c(N)ncnc32)C1 [ibrutinib]
In short: (§1)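 Dounce homogenisation of K562 pellets in PBS pH 7.4 with 1 mM MgCl2 produced a crude extract, used at 1 mg/mL protein. Exposure to 10 μM compound lasted 30 min, and aliquots were then heated for 3 min across 48°C-58°C, pooled and brought to 0.5% NP-40 at 4°C. The supernatant after 21,000xg for 90 min was quantified by TMTpro 16plex LC-MS/MS with channel sums equalised. Duplicate values are given as log-two fold change in thermal stability relative to solvent controls.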

[1] = compound: CC(=O)c1cnc2ccc(-c3cc(Cl)c(O)c(Cl)c3)nc2c1N[C@H]1CC[C@H](CN(C)C)CC1
In short: as §1

ralimetinib = compound: CC(C)(C)Cn1c(N)nc2ccc(-c3[nH]c(C(C)(C)C)nc3-c3ccc(F)cc3)nc21 [ralimetinib]
In short: as §1

[2] = compound: CC(C)(O)CC(=O)NCCn1ccc2ncnc(Nc3ccc(Oc4cccc(C(F)(F)F)c4)c(Cl)c3)c21
In short: as §1

[3] = compound: CC(C)C1=C2N=C(C=C(N2N=C1)NCC3=CC=CC=C3)NCCCCCCN
In short: as §1

[4] = compound: CC1=C(C=C(C=C1)NC(=O)C2=CC(=CC=C2)N(C)C)NC(=O)C3=CC=C(C=C3)O
In short: as §1

[5] = compound: CC1=CC=C(C=C1)SC2=C3C=C(SC3=CN=C2)C(=O)N
In short: as §1

vemurafenib = compound: CCCS(=O)(=O)Nc1ccc(F)c(C(=O)c2c[nH]c3ncc(-c4ccc(Cl)cc4)cc23)c1F [vemurafenib]
In short: as §1

[6] = compound: CCCS(=O)(=O)Nc1ccc(F)c(C(=O)c2c[nH]c3ncc(Cl)cc23)c1F
In short: as §1

barasertib = compound: CCN(CCCOc1ccc2c(Nc3cc(CC(=O)Nc4cccc(F)c4)[nH]n3)ncnc2c1)CCOP(=O)(O)O [barasertib]
In short: as §1

[7] = compound: CC[C@@H]1C(=O)N(C)c2cnc(Nc3ccc(C(=O)NC4CCN(C)CC4)cc3OC)nc2N1C1CCCC1
In short: as §1

volasertib = compound: CC[C@@H]1C(=O)N(C)c2cnc(Nc3ccc(C(=O)N[C@H]4CC[C@H](N5CCN(CC6CC6)CC5)CC4)cc3OC)nc2N1C(C)C [volasertib]
In short: as §1

[8] = compound: CCn1c(C(=O)N(C2CC2)C2CC2)cc2c3c(ncn3C)c(Nc3cc(C)n(C)n3)nc21
In short: as §1

[9] = compound: CCn1cc(-c2ccnc3[nH]c(-c4cccc(CN(C)C)c4)cc23)c(-c2ccc(NC(=O)N(C)C)cc2)n1
In short: as §1

[10] = compound: CN1CCC(CNc2ccc3ncc(-c4cccc(OC(F)(F)F)c4)n3n2)CC1
In short: as §1

[11] = compound: CC1=C(C(CC(=O)N1)C2=CC=C(C=C2)C(F)(F)F)C(=O)NC3=C(C=C4C(=C3)C=NN4)F
In short: as §1

[12] = compound: CC1=C(C2=C(C=C1)C(=O)C3=CC=CC=C3N2CCCN)C
In short: as §1

[13] = compound: CC1=C(C=C(C=C1)NC(=O)C2=CC(=CC=C2)C(C)(C)C#N)NC3=CC4=C(C=C3)N=CN(C4=O)C
In short: as §1

saracatinib = compound: CN1CCN(CCOc2cc(OC3CCOCC3)c3c(Nc4c(Cl)ccc5c4OCO5)ncnc3c2)CC1 [saracatinib]
In short: as §1

sotrastaurin = compound: CN1CCN(c2nc(C3=C(c4c[nH]c5ccccc45)C(=O)NC3=O)c3ccccc3n2)CC1 [sotrastaurin]
In short: as §1

| Target | log2 fold change (ibrutinib) | log2 fold change [1] | log2 fold change (ralimetinib) | log2 fold change [2] | log2 fold change [3] | log2 fold change [4] | log2 fold change [5] | log2 fold change (vemurafenib) | log2 fold change [6] | log2 fold change (barasertib) | log2 fold change [7] | log2 fold change (volasertib) | log2 fold change [8] | log2 fold change [9] | log2 fold change [10] | log2 fold change [11] | log2 fold change [12] | log2 fold change [13] | log2 fold change (saracatinib) | log2 fold change (sotrastaurin) |
| --- | --- | --- | --- | --- | --- | --- | --- | --- | --- | --- | --- | --- | --- | --- | --- | --- | --- | --- | --- | --- |
| HEXD isoform 2 (UniProt Q8WVB3) | inactive: -0.027 | inactive: 0.05 | inactive: -0.164 | inactive: -0.127 | inactive: -0.261 | inactive: 0.07 | inactive: 0.059 | inactive: 0.008 | inactive: -0.014 | inactive: 0.01 | inactive: 0.072 | inactive: -0.007 | inactive: 0.122 | inactive: -0.166 | inactive: 0.295 | – | – | – | – | – |
| HMGN4 (UniProt O00479) | inactive: -0.067 | inactive: 0.051 | inactive: -0.249 | inactive: 0 | inactive: -0.097 | inactive: -0.077 | inactive: 0.022 | inactive: -0.015 | inactive: 0.016 | inactive: -0.003 | inactive: 0.453 | inactive: 0.003 | inactive: 0.022 | active: 1.29 | inactive: -0.595 | inactive: -0.011 | inactive: 0.016 | inactive: -0.014 | inactive: -0.173 | inactive: -0.099 |
| HMCN1 (UniProt Q96RW7) | inactive: -0.007 | – | inactive: -0.201 | inactive: -0.34 | – | inactive: 0.025 | – | inactive: -0.033 | – | inactive: 0.008 | – | – | inactive: -0.36 | inactive: 0.343 | inactive: -0.268 | inactive: 0.154 | – | – | – | – |
| HNRNPK isoform 2 (UniProt P61978) | inactive: 0.013 | inactive: -0.01 | inactive: -0.026 | inactive: 0 | inactive: 0.015 | inactive: 0.005 | inactive: -0.002 | inactive: 0.018 | inactive: 0.02 | inactive: -0.046 | inactive: 0.007 | inactive: -0.013 | inactive: -0.002 | inactive: 0.011 | inactive: 0.006 | inactive: -0.017 | inactive: 0.012 | inactive: 0.046 | inactive: -0.023 | inactive: -0.015 |
| HPS4 isoform 4 (UniProt Q9NQG7) | inactive: 0.025 | inactive: 0.062 | inactive: 0.065 | inactive: 0 | inactive: 0.008 | inactive: 0.046 | inactive: -0.098 | inactive: 0.02 | inactive: 0.083 | inactive: -0.044 | inactive: 0.071 | inactive: -0.006 | inactive: 0.027 | – | – | – | inactive: -0.008 | inactive: -0.022 | inactive: 0.01 | inactive: 0.045 |
| HPS5 (UniProt Q9UPZ3) | inactive: -0.091 | inactive: -0.129 | inactive: 0.157 | inactive: 0.092 | inactive: -0.285 | inactive: 0.033 | inactive: 0.03 | inactive: 0.036 | inactive: -0.035 | inactive: -0.013 | – | inactive: -0.008 | inactive: -0.107 | inactive: 0.327 | inactive: -0.074 | inactive: 0.144 | inactive: 0.005 | inactive: -0.003 | inactive: -0.203 | inactive: 0.084 |
| HSP90AB1 (UniProt P08238) | inactive: 0.001 | inactive: 0.003 | inactive: -0.011 | inactive: 0.006 | inactive: 0.006 | inactive: 0.019 | inactive: 0.012 | inactive: -0.021 | inactive: 0.01 | inactive: -0.013 | inactive: 0.019 | inactive: -0.003 | inactive: -0.004 | inactive: 0.106 | inactive: -0.064 | inactive: 0 | inactive: 0.014 | inactive: -0.024 | inactive: 0.004 | inactive: -0.012 |
| HNRNPL, A0A3B3ITJ4 | inactive: 0.033 | inactive: 0.033 | – | – | – | – | inactive: -0.104 | – | inactive: 0.087 | inactive: 0.14 | – | inactive: -0.072 | – | – | – | – | – | – | – | – |
| HPS1 (UniProt Q92902) | inactive: 0.034 | inactive: 0 | inactive: 0.083 | inactive: -0.066 | inactive: 0.078 | inactive: -0.16 | inactive: -0.092 | inactive: 0.093 | inactive: 0.125 | inactive: 0.023 | inactive: -0.037 | inactive: -0.008 | inactive: 0.014 | inactive: -0.025 | inactive: 0.031 | – | inactive: 0.029 | inactive: -0.046 | inactive: 0.086 | inactive: -0.007 |
| HSP90AA4P (UniProt Q58FG1) | inactive: 0.026 | inactive: -0.123 | inactive: -0.011 | inactive: -0.055 | inactive: 0.021 | inactive: 0.097 | inactive: -0.051 | inactive: -0.002 | inactive: 0 | inactive: 0.377 | inactive: 0.006 | inactive: 0.005 | inactive: -0.076 | inactive: 0.26 | inactive: 0.041 | inactive: -0.071 | inactive: -0.045 | inactive: 0.073 | inactive: -0.03 | inactive: 0.033 |
| HMOX2 (UniProt P30519) | inactive: -0.039 | inactive: 0.019 | inactive: 0.054 | inactive: 0.031 | inactive: -0.034 | inactive: -0.048 | inactive: 0.051 | inactive: -0.059 | inactive: -0.015 | inactive: 0.025 | inactive: -0.015 | inactive: 0.005 | inactive: -0.012 | inactive: -0.041 | inactive: -0.01 | inactive: -0.021 | inactive: 0.018 | inactive: -0.028 | inactive: 0.017 | inactive: 0.036 |
| HNRNPUL1 (UniProt M0R247) | inactive: -0.045 | – | – | – | inactive: 0.016 | – | – | – | – | inactive: 0.109 | – | – | – | inactive: 0.004 | inactive: 0.037 | – | – | – | – | – |
| HMGN5 (UniProt Q5JSK9) | inactive: 0.051 | inactive: -0.007 | – | – | – | – | inactive: -0.005 | – | inactive: -0.013 | inactive: -0.03 | inactive: 0.039 | inactive: 0.054 | – | – | – | inactive: -0.094 | – | – | – | – |
| HMG20B (UniProt Q9P0W2) | inactive: -0.029 | inactive: -0.054 | inactive: -0.018 | inactive: -0.03 | inactive: -0.009 | inactive: 0.035 | inactive: 0.015 | inactive: -0.205 | inactive: -0.006 | inactive: 0.018 | inactive: 0.056 | inactive: -0.028 | inactive: -0.038 | inactive: 0.007 | inactive: 0.039 | inactive: 0.001 | inactive: -0.031 | inactive: 0.009 | inactive: 0.058 | inactive: 0.045 |
| HJURP (UniProt Q8NCD3) | inactive: 0 | inactive: 0.071 | inactive: -0.057 | inactive: -0.126 | inactive: 0.191 | inactive: 0.461 | inactive: -0.106 | inactive: -0.06 | inactive: -0.064 | inactive: 0.064 | – | inactive: -0.06 | inactive: 0.007 | – | – | inactive: -0.058 | inactive: -0.06 | inactive: 0.116 | inactive: 0.034 | inactive: -0.068 |
| HOMER3 (UniProt Q9NSC5) | inactive: -0.095 | inactive: -0.01 | – | – | – | – | inactive: 0.048 | – | inactive: 0.123 | inactive: -0.129 | – | inactive: -0.011 | – | inactive: 0.037 | inactive: -0.071 | – | – | inactive: -0.028 | – | inactive: 0.028 |
| HSF2 (UniProt Q03933) | – | – | inactive: 0.012 | inactive: 0.023 | – | inactive: 0.081 | – | inactive: 0 | – | – | inactive: -0.037 | – | inactive: -0.025 | inactive: -0.181 | inactive: 0.193 | – | inactive: -0.024 | – | inactive: -0.05 | – |
| HINFP (UniProt Q9BQA5) | – | – | – | – | – | – | – | – | – | – | – | – | – | – | – | inactive: -0.629 | – | inactive: -0.001 | – | inactive: 0.046 |
| HMGA1 isoform 2 (UniProt P17096) | – | inactive: 0.053 | inactive: -0.122 | inactive: 0.088 | inactive: -0.029 | inactive: 0.054 | inactive: 0.01 | – | inactive: 0.019 | – | – | inactive: 0.034 | inactive: 0.027 | active: 0.875 | inactive: -0.339 | inactive: 0.047 | inactive: -0.229 | inactive: -0.034 | inactive: 0.053 | inactive: -0.106 |
| HSD3B7 (UniProt Q9H2F3) | – | – | – | – | – | – | – | – | – | – | – | – | – | – | – | inactive: -0.047 | – | – | – | – |
| HGFAC (UniProt Q04756) | – | – | – | – | – | – | – | – | – | – | – | – | – | inactive: 0.085 | inactive: 0.052 | inactive: 0.006 | – | – | – | – |

Pulled one by one from the list above, two records:

| Target | log2 fold change (ibrutinib) | log2 fold change [1] | log2 fold change (ralimetinib) | log2 fold change [2] | log2 fold change [3] | log2 fold change [4] | log2 fold change [5] | log2 fold change (vemurafenib) | log2 fold change [6] | log2 fold change (barasertib) | log2 fold change [7] | log2 fold change (volasertib) | log2 fold change [8] | log2 fold change [9] | log2 fold change [10] | log2 fold change [11] | log2 fold change [12] | log2 fold change [13] | log2 fold change (saracatinib) | log2 fold change (sotrastaurin) |
| --- | --- | --- | --- | --- | --- | --- | --- | --- | --- | --- | --- | --- | --- | --- | --- | --- | --- | --- | --- | --- |
| HMGN4 (UniProt O00479) | inactive: -0.067 | inactive: 0.051 | inactive: -0.249 | inactive: 0 | inactive: -0.097 | inactive: -0.077 | inactive: 0.022 | inactive: -0.015 | inactive: 0.016 | inactive: -0.003 | inactive: 0.453 | inactive: 0.003 | inactive: 0.022 | active: 1.29 | inactive: -0.595 | inactive: -0.011 | inactive: 0.016 | inactive: -0.014 | inactive: -0.173 | inactive: -0.099 |
| HOMER3 (UniProt Q9NSC5) | inactive: -0.095 | inactive: -0.01 | – | – | – | – | inactive: 0.048 | – | inactive: 0.123 | inactive: -0.129 | – | inactive: -0.011 | – | inactive: 0.037 | inactive: -0.071 | – | – | inactive: -0.028 | – | inactive: 0.028 |
